Measurements: paper PMC12388358
Positions count from the first letter of the chain named. For at least one entry, the source does not settle the construct or the ends of the probe. For part of these data: Protein sequences can lack the tags named with them.

Assays:
[1] = biological target: T1, H-NS (Escherichia coli K-12) (UniProt P0ACF8); test: EMSA; settings: H-NS 2.5-40 pmol, DNA 0.5 pmol; EMSA: standard conditions as cited; recombinant protein; label: 5'-FITC on the CD6R-FITC-R strand; probe letters rebuilt from the primers and the genome
T1 sequence (looked up, limits assumed): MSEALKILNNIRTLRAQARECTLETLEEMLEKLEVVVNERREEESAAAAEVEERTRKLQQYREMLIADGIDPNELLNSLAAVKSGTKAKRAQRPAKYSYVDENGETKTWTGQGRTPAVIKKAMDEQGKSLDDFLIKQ

RcsB [2] = biological target: T2, RcsB (UniProt P0DMC7); test: EMSA; settings: EMSA: standard conditions as cited, recombinant protein, protein details: C-terminal 6xHis, label: 5'-FITC on the CD6R-FITC-R strand, probe letters rebuilt from the primers and the genome
T2 sequence (looked up, limits assumed): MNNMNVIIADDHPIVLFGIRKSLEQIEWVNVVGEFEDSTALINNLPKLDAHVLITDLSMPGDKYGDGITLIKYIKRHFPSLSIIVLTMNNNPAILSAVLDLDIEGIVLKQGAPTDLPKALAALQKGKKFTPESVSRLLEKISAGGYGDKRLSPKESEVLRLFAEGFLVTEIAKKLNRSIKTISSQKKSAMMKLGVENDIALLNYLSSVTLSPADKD

RcsB + H-NS = test: EMSA; settings: RcsB and H-NS together, super-shifted complex, 2.5-40 pmol; EMSA: standard conditions as cited; recombinant protein; protein details: C-terminal 6xHis; label: 5'-FITC on the CD6R-FITC-R strand; probe letters rebuilt from the primers and the genome
[3] = biological target: T3, RcsB D56N (Escherichia coli K-12 BW25113) (UniProt P0DMC7); test: EMSA; settings: 10-20 pmol, DNA 0.5 pmol; EMSA: standard conditions as cited; recombinant protein; protein details: His; label: 5'-FITC on the CD6R-FITC-R strand; probe letters rebuilt from the primers and the genome
T3 sequence (looked up, limits assumed): T2 sequence (looked up, limits assumed) with D56N

RcsB [4] = biological target: T2, RcsB; test: DNase I footprinting; settings: RcsB 20-80 pmol, DNA 1.0 pmol, protects -31 to +54; Footprinting: 10 mM Tris/HCl pH 7.8, 150 mM NaCl, 3 mM Mg acetate, 5 mM CaCl2, 25 ug/mL BSA, 37 C 30 min, digestion at 25 C; recombinant protein; protein details: C-terminal 6xHis; label: 5'-FITC on the CD6R-FITC-R strand; probe letters rebuilt from the primers and the genome

Measured: binding result

GCACTGCTGTGTGTAGTAATAAATCAGCCCTAAATGGGTAAAATATAAAACTAATGGATTACATCTGATTTCAATCTAGCCATTACAAATCTTAAATCAAGTGTTAAACATGTAACTAAATGTAACTCGTTATATTAAAATGTTAACCTTAAGGTTTTATTAAGTTTAGAAATGATAGAAAAGTTGTACATTTGGTTTTTATTGCACAATTTTAAAAAATCATACAAATGGTGATAACTTACTAATAATGCATATAAAAAATATTTCGGTGTAGTCCTTTCGTCATGTAAAACGTTCTTGTTTTTTCTCCACACCTCCGTGGACAATTTTTTACTGCAAAAAGACGAGGTTTGTCACGGCTTGTGCGCAAGACATATCGCAGCAATCAGCGACGGGCAAGAAGAATTCCTGTCT (double strand) [csgD promoter probe (-335 to +67)]
binds: [1] | RcsB [2]; 10 mM acetyl phosphate, binding unaffected | RcsB [2]; no acetyl phosphate, RcsB 2.5-40 pmol, DNA 0.5 pmol | RcsB + H-NS | [3] | RcsB [4]
